Experiment [1] addresses SFB-tagged GLP catalytic domain deletion mutant (UniProt Q9H9B1). The experiment can be described thus: pull-down; SFB-tagged protein and its partner expressed in 293T cells; lysates on streptavidin beads, Western blotting.
Experiment [2] has the same target. The experiment is described as above. The source holds these as a separate data set.

Chains of the proteins cited; added tags and fusions are not shown. Lines headed by an entry give the natural chain unless they say otherwise; changes in a name come on top.
UniProt Q9H9B1: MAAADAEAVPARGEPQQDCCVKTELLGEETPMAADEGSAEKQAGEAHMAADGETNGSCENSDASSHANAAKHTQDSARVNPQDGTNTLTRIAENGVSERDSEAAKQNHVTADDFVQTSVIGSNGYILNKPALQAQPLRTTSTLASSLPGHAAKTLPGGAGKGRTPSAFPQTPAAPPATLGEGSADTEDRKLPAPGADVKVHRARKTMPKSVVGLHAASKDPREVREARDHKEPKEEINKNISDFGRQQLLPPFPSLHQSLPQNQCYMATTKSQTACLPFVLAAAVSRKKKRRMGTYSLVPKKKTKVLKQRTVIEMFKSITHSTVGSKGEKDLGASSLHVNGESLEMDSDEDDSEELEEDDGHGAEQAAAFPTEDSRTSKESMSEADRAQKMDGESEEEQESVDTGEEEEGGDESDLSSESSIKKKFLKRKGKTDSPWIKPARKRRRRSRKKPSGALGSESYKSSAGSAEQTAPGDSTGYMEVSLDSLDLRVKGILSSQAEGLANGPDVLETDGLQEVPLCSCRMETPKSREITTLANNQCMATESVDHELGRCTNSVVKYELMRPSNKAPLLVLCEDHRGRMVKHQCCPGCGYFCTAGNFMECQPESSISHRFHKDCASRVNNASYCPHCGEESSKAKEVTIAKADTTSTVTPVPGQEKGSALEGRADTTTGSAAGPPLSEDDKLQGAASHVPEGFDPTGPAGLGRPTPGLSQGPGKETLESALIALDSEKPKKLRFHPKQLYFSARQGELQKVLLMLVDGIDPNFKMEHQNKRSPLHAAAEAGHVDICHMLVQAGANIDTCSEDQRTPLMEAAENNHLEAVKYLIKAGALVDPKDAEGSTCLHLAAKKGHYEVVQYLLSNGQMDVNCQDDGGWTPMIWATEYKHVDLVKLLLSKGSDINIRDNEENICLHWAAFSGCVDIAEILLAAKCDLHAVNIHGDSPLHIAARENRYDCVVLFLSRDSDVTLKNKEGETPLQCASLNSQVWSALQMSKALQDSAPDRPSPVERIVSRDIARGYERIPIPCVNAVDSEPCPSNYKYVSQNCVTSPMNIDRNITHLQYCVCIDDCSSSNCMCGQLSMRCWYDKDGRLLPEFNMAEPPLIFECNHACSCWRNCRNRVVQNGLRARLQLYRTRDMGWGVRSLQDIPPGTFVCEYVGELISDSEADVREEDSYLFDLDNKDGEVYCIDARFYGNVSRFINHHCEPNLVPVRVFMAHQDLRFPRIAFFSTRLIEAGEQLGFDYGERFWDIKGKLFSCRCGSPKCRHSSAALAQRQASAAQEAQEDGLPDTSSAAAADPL
UniProt O95785: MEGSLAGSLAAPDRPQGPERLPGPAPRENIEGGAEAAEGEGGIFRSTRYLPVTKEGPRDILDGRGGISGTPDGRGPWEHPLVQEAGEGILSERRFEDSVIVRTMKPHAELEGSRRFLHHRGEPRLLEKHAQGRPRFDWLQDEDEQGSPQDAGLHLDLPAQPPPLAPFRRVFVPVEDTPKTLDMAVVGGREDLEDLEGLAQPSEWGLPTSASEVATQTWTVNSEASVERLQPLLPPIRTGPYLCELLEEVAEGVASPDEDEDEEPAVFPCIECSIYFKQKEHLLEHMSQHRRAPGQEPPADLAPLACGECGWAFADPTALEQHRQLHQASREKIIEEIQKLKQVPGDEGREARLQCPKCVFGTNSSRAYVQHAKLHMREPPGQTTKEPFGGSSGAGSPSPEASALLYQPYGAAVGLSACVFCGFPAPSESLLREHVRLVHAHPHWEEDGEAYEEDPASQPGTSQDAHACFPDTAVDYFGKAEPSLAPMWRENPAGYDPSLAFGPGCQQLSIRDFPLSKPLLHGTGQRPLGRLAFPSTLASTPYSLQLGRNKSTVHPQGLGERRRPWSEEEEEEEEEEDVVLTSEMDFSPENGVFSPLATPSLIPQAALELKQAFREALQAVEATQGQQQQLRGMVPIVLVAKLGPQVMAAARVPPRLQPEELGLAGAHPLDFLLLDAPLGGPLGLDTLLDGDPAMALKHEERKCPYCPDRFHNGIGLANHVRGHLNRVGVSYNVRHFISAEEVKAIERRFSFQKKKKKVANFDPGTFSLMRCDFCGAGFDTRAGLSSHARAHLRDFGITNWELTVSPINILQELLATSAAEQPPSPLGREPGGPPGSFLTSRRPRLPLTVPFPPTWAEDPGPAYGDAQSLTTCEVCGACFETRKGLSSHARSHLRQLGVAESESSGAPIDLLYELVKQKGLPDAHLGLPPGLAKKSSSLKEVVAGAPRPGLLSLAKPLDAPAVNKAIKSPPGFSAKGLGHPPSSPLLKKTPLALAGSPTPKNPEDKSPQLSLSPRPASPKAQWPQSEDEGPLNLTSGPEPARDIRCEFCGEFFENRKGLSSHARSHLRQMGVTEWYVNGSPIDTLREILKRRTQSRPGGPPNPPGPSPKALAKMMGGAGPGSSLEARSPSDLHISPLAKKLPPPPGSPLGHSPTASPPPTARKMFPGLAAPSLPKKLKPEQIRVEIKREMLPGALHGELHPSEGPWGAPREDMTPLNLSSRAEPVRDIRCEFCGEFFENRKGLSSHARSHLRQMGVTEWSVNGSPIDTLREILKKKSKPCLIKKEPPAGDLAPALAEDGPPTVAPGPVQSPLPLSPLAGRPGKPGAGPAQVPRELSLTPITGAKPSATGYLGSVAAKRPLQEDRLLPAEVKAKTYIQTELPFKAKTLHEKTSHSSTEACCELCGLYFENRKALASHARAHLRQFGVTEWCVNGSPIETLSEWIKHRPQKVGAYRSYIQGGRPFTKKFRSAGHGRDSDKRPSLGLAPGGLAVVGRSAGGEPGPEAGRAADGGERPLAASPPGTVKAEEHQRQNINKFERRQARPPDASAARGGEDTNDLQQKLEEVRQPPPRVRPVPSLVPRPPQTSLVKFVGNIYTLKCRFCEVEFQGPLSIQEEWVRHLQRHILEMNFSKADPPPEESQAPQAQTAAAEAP

Where two headings read alike, the source gives them in different places. Results are given in words; binding and its absence hold for the method and conditions named. In cells and extracts the contact can be indirect. For some assays here: A result given as binding can be weak or reduced; the word gives no strength. For some assays here: Where a sequence is shown, tags or fusion partners need not be part of it.

For the molecule “WIZ (partner of SFB-G9a and SFB-GLP in Figure 2C and 2E) (from UniProt O95785 1-1651)”, the binding result in experiment [1] is reported as “binds”.

B1: Myc-tagged ZNF644 (wild type) (protein, UniProt Q9H582 1-1327)
chain: MRSFLQQDVNKTKSRLNVLNGLANNMDDLKINTDITGAKEELLDDNNFISDKESGVHKPKDCQTSFQKNNTLTLPEELSKDKSENALSGGQSSLFIHAGAPTVSSENFILPKGAAVNGPVSHSSLTKTSNMNKGSVSLTTGQPVDQPTTESCSTLKVAADLQLSTPQKASQHQVLFLLSDVAHAKNPTHSNKKLPTSASVGCDIQNSVGSNIKSDGTLINQVEVGEDGEDLLVKDDCVNTVTGISSGTDGFRSENDTNWDPQKEFIQFLMTNEETVDKAPPHSKIGLEKKRKRKMDVSKITRYTEDCFSDSNCVPNKSKMQEVDFLEQNEELQAVDSQKYALSKVKPESTDEDLESVDAFQHLIYNPDKCGEESSPVHTSTFLSNTLKKKCEESDSESPATFSTEEPSFYPCTKCNVNFREKKHLHRHMMYHLDGNSHFRHLNVPRPYACRECGRTFRDRNSLLKHMIIHQERRQKLMEEIRELKELQDEGRSARLQCPQCVFGTNCPKTFVQHAKTHEKDKRYYCCEECNFMAVTENELECHRGIAHGAVVKCPMVTSDIAQRKTQKKTFMKDSVVGSSKKSATYICKMCPFTTSAKSVLKKHTEYLHSSSCVDSFGSPLGLDKRKNDILEEPVDSDSTKTLTKQQSTTFPKNSALKQDVKRTFGSTSQSSSFSKIHKRPHRIQKARKSIAQSGVNMCNQNSSPHKNVTIKSSVDQKPKYFHQAAKEKSNAKANSHYLYRHKYENYRMIKKSGESYPVHFKKEEASSLNSLHLFSSSSNSHNNFISDPHKPDAKRPESFKDHRRVAVKRVIKESKKESSVGGEDLDSYPDFLHKMTVVVLQKLNSAEKKDSYETEDESSWDNVELGDYTTQAIEDETYSDINQEHVNLFPLFKSKVEGQEPGENATLSYDQNDGFYFEYYEDTGSNNFLHEIHDPQHLETADASLSKHSSVFHWTDLSLEKKSCPYCPATFETGVGLSNHVRGHLHRAGLSYEARHVVSPEQIATSDKMQHFKRTGTGTPVKRVRKAIEKSETTSEHTCQLCGGWFDTKIGLSNHVRGHLKRLGKTKWDAHKSPICVLNEMMQNEEKYEKILKALNSRRIIPRPFVAQKLASSDDFISQNVIPLEAYRNGLKTEALSVSASEEEGLNFLNEYDETKPELPSGKKNQSLTLIELLKNKRMGEERNSAISPQKIHNQTARKRFVQKCVLPLNEDSPLMYQPQKMDLTMHSALDCKQKKSRSRSGSKKKMLTLPHGADEVYILRCRFCGLVFRGPLSVQEDWIKHLQRHIVNANLPRTGAGMVEVTSLLKKPASITETSFSLLMAEAAS
Consider B1, for which the binding result in experiment [2] is “no binding”.

These data come from paper PMC4365668, “The zinc finger proteins ZNF644 and WIZ regulate the G9a/GLP complex for gene repression”.
